Taken from: PubChem BioAssay AID652243 (Drosophila RNAi Screening Center, 2013)
Purpose: 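Fly genes required for human androgen receptor driven transcription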 (primary screen). Cell system: Drosophila S2R+ cells. Reagent: long dsRNA against Drosophila genes. Time to read-out: 72 h (48 h, then 24 h hormone). Conditions: synthetic androgen R1881 at 10 nM for 24 h. Detection: 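Firefly light from an androgen-responsive reporter and Renilla control light per well, raw and unnormalised, for each of two replicates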. Direction: firefly reporter light: higher = more light from androgen-responsive reporter; Renilla control light: higher = more constitutive control signal (cell number, transfection). Hit rule: 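Across duplicate plates, a knock-down whose log firefly/Renilla ratio shifted a set fold down or up from the GFP/LacZ control mean was a hit; the downward cut appears as both 1.5 and 3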. Meaning of the calls: active = hit: reporter lowered or raised; inactive = no hit.
The deposit covers about 24,000 reagents; below is a random part of those with a known target gene and a result. Over the whole deposit, 246 (1%) were called active. 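Plates not normalised; calls are printed but the firefly/Renilla ratio behind them is not deposited; fold cut for lowering reported inconsistently.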 Raw values are not corrected between plates. A plus sign joins genes that one reagent is predicted to hit. No sequences are given here. Not stated in the record: the amount of reagent.

With knock-down of CG6426 [DRSC06985], the record shows firefly reporter light, replicate 1 = 1.07e5; firefly reporter light, replicate 2 = 96649; Renilla control light, replicate 1 = 1.61e6; Renilla control light, replicate 2 = 1.61e6; inactive.
Against CG14082 [DRSC10086], the entry reads firefly reporter light, replicate 1 = 3.55e5; firefly reporter light, replicate 2 = 3.42e5; Renilla control light, replicate 1 = 2.23e6; Renilla control light, replicate 2 = 2.81e6; inactive.
CG14082 [DRSC25472] gave firefly reporter light, replicate 1 = 8.74e5; firefly reporter light, replicate 2 = 8.13e5; Renilla control light, replicate 1 = 8.12e5; Renilla control light, replicate 2 = 8.21e5; inactive.
Depletion of Pph13 [DRSC23162] came out at: firefly reporter light, replicate 1 = 5.80e5; firefly reporter light, replicate 2 = 6.68e5; Renilla control light, replicate 1 = 1.60e6; Renilla control light, replicate 2 = 1.61e6; inactive.
After knock-down of Pph13 [DRSC29483], the screen gave firefly reporter light, replicate 1 = 5.79e5; firefly reporter light, replicate 2 = 5.90e5; Renilla control light, replicate 1 = 5.94e5; Renilla control light, replicate 2 = 5.94e5; inactive.
With knock-down of Act57B [DRSC04042], the screen gave firefly reporter light, replicate 1 = 7.16e5; firefly reporter light, replicate 2 = 8.42e5; Renilla control light, replicate 1 = 2.42e6; Renilla control light, replicate 2 = 2.42e6; inactive.
Against CCT2 [DRSC18415], the values are firefly reporter light, replicate 1 = 96744; firefly reporter light, replicate 2 = 85533; Renilla control light, replicate 1 = 7.02e5; Renilla control light, replicate 2 = 5.87e5; inactive.
Depletion of CCT2 [DRSC27831] came out at: firefly reporter light, replicate 1 = 2.84e5; firefly reporter light, replicate 2 = 3.25e5; Renilla control light, replicate 1 = 6.99e5; Renilla control light, replicate 2 = 9.31e5; inactive.
Knock-down of CCT2 [DRSC38995] came out at: firefly reporter light, replicate 1 = 6.51e5; firefly reporter light, replicate 2 = 9.03e5; Renilla control light, replicate 1 = 2.23e6; Renilla control light, replicate 2 = 2.26e6; inactive.
Knock-down of spn-D [DRSC22641] came out at: firefly reporter light, replicate 1 = 1.04e6; firefly reporter light, replicate 2 = 7.13e5; Renilla control light, replicate 1 = 1.99e6; Renilla control light, replicate 2 = 1.18e6; inactive.
With knock-down of Ork1 [DRSC20266] the results were firefly reporter light, replicate 1 = 43329; firefly reporter light, replicate 2 = 40657; Renilla control light, replicate 1 = 3.91e5; Renilla control light, replicate 2 = 1.93e5; inactive.
CG1695 [DRSC20538] showed firefly reporter light, replicate 1 = 2.63e5; firefly reporter light, replicate 2 = 1.38e5; Renilla control light, replicate 1 = 5.49e5; Renilla control light, replicate 2 = 3.01e5; inactive.
For CG1695 [DRSC25561] the deposit lists firefly reporter light, replicate 1 = 8.95e5; firefly reporter light, replicate 2 = 1.02e6; Renilla control light, replicate 1 = 9.26e5; Renilla control light, replicate 2 = 9.75e5; inactive.
AGO3 [DRSC21386] showed firefly reporter light, replicate 1 = 5.19e5; firefly reporter light, replicate 2 = 6.73e5; Renilla control light, replicate 1 = 2.09e6; Renilla control light, replicate 2 = 1.62e6; inactive.
For Apoltp [DRSC02508], the values are firefly reporter light, replicate 1 = 7.37e5; firefly reporter light, replicate 2 = 8.11e5; Renilla control light, replicate 1 = 1.21e6; Renilla control light, replicate 2 = 1.14e6; inactive.
Depletion of CG17470 [DRSC02621] came out at: firefly reporter light, replicate 1 = 6.71e5; firefly reporter light, replicate 2 = 8.53e5; Renilla control light, replicate 1 = 9.11e5; Renilla control light, replicate 2 = 1.22e6; inactive.
CG15097 [DRSC06526] gave firefly reporter light, replicate 1 = 1.20e6; firefly reporter light, replicate 2 = 1.05e6; Renilla control light, replicate 1 = 1.73e6; Renilla control light, replicate 2 = 1.21e6; inactive.
CG15097 [DRSC27170] showed firefly reporter light, replicate 1 = 3.08e5; firefly reporter light, replicate 2 = 2.37e5; Renilla control light, replicate 1 = 5.69e5; Renilla control light, replicate 2 = 5.94e5; inactive.
For dmt [DRSC16932], the entry reads firefly reporter light, replicate 1 = 1.03e5; firefly reporter light, replicate 2 = 1.63e5; Renilla control light, replicate 1 = 1.99e6; Renilla control light, replicate 2 = 1.95e6; inactive.

Part of the list above, showing only “Renilla control light, replicate 1”.
CG6426 [DRSC06985]: 1.61e6
CG14082 [DRSC10086]: 2.23e6

The list goes on:
CG18858 + CG31683 [DRSC26788] gave firefly reporter light, replicate 1 = 3.61e5; firefly reporter light, replicate 2 = 3.40e5; Renilla control light, replicate 1 = 6.59e5; Renilla control light, replicate 2 = 4.38e5; inactive.
After knock-down of vtd [DRSC38781], the screen gave firefly reporter light, replicate 1 = 6.67e5; firefly reporter light, replicate 2 = 7.29e5; Renilla control light, replicate 1 = 1.17e6; Renilla control light, replicate 2 = 1.35e6; inactive.
Against kis [DRSC00521], the entry reads firefly reporter light, replicate 1 = 60390; firefly reporter light, replicate 2 = 42339; Renilla control light, replicate 1 = 3.17e5; Renilla control light, replicate 2 = 3.78e5; inactive.
Against kis [DRSC00625], the entry reads firefly reporter light, replicate 1 = 65041; firefly reporter light, replicate 2 = 77508; Renilla control light, replicate 1 = 5.23e5; Renilla control light, replicate 2 = 8.62e5; inactive.
Against kis [DRSC00823] the deposit lists firefly reporter light, replicate 1 = 7.70e5; firefly reporter light, replicate 2 = 7.60e5; Renilla control light, replicate 1 = 3.97e6; Renilla control light, replicate 2 = 2.12e6; inactive.
Silencing of kis [DRSC39149] resulted in: firefly reporter light, replicate 1 = 6.72e5; firefly reporter light, replicate 2 = 5.30e5; Renilla control light, replicate 1 = 1.72e6; Renilla control light, replicate 2 = 1.73e6; inactive.
Knock-down of CG43707 [DRSC00280] gave: firefly reporter light, replicate 1 = 1.11e5; firefly reporter light, replicate 2 = 1.66e5; Renilla control light, replicate 1 = 1.28e6; Renilla control light, replicate 2 = 1.07e6; inactive.
Against CG43707 [DRSC22869], the values are firefly reporter light, replicate 1 = 3.32e5; firefly reporter light, replicate 2 = 5.17e5; Renilla control light, replicate 1 = 8.16e5; Renilla control light, replicate 2 = 1.04e6; inactive.
Against CG43707 [DRSC22912], the entry reads firefly reporter light, replicate 1 = 2.01e5; firefly reporter light, replicate 2 = 4.23e5; Renilla control light, replicate 1 = 1.03e6; Renilla control light, replicate 2 = 2.23e6; inactive.
Knock-down of CG43707 [DRSC25146] came out at: firefly reporter light, replicate 1 = 7.01e5; firefly reporter light, replicate 2 = 6.61e5; Renilla control light, replicate 1 = 8.65e5; Renilla control light, replicate 2 = 7.02e5; inactive.
